Taken from: PubChem BioAssay AID686943 (Drosophila RNAi Screening Center, 2013)

Aim: 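Search across the genome for regulators of signalling from receptor tyrosine kinase to ERK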 (primary screen)
Cell system: Drosophila S2R+ haemocyte-like cells expressing YFP-tagged ERK (Rolled)
Knock-down reagent: long dsRNA against Drosophila genes
Challenge: insulin stimulation versus unstimulated cells; dose and duration not given
Measurement: 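Antibody staining for doubly phosphorylated ERK divided by ERK-YFP signal, as plate z-scores, in insulin-treated and untreated cells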
Direction: replicate 1, z-score of dpERK with insulin and replicate 2, z-score of dpERK with insulin: higher = more active ERK per ERK-YFP after insulin; replicate 1, z-score of dpERK under basal conditions: higher = more basal active ERK per ERK-YFP; replicate 1, z-score of ERK-YFP with insulin: higher = more YFP-tagged ERK signal
The screen tested about 23,000 reagents; below is a random part of those that have a named target and a result. 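Extra replicates exist only for a retested subset of genes; insulin dose and duration not given; both raised and lowered dpERK matter.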 A plus sign joins genes that one reagent is predicted to hit. Reagent sequences are not shown. The record does not give: the amount of reagent, the time to read-out.

| replicate 1, z-score of dpERK with insulin | replicate 2, z-score of dpERK with insulin | replicate 1, z-score of dpERK under basal conditions | replicate 1, z-score of ERK-YFP with insulin | gene | amplicon |
| --- | --- | --- | --- | --- | --- |
| -0.15 | -0.59 | -0.15 | -1.03 | CG9682 (GeneID 43602) | DRSC16536 |
| 0.79 | 0.3 | 0.1 | 0.68 | mof (GeneID 31518) | DRSC18795 |
| -0.61 | -0.36 | 0.03 | 1.5 | sov (GeneID 31615) | DRSC17930 |
| 1.8 | 1.88 | 0.56 | -0.09 | MED15 (GeneID 33223) | DRSC00267 |
| -1.08 | -1.2 | -1.02 | -0.35 | lin-28 (GeneID 38639) | DRSC10261 |
| 0.29 | -1.02 | -0.03 | 0.37 | Syx8 (GeneID 39847) | DRSC10402 |
| -0.17 | -0.86 | 0.39 | -1.36 | Syx8 (GeneID 39847) | DRSC22498 |
| 0.48 | 0.36 | -0.52 | -0.33 | CR42548 (GeneID 8673959) | DRSC09514 |
| -0.55 | -0.04 | 0.4 | -0.14 | CaBP1 (GeneID 34976) | DRSC01984 |
| 0.44 | -0.32 | 0.71 | 0.11 | CG5348 (GeneID 36877) | DRSC06933 |
| 1.43 | 0.41 | 0.01 | -0.42 | CG15728 (GeneID 32214) | DRSC19694 |
| -0.68 | 0.03 | 0.8 | 1.15 | CG15728 (GeneID 32214) | DRSC22868 |
| 0.6 | -0.6 | 2.27 | -1.5 | CG3652 (GeneID 33643) | DRSC00624 |
| 0.16 | -0.09 | 0.96 | -0.4 | CG10171 (GeneID 39501) | DRSC09711 |
| 0.2 | 0.3 | 1.05 | 0.41 | CG6813 (GeneID 41396) | DRSC16122 |
| -0.06 | -0.24 | -0.41 | 0.93 | CG5645 (GeneID 39382) | DRSC10532 |
| -0.31 | 0.01 | 1.31 | 0.07 | CG5510 (GeneID 42872) | DRSC15823 |
| 0.11 | -1.06 | -0.51 | 0.67 | CG17564 (GeneID 35205) | DRSC02626 |
| -0.61 | -0.04 | 1.35 | 0.28 | CG33978 (GeneID 3885646) | DRSC17106 |
| 0.21 | 0.68 | 0.21 | 0.53 | Zip99C (GeneID 43533) | DRSC16320 |
| 0.19 | 0 | 0.21 | -0.08 | CG14362 (GeneID 41695) | DRSC14824 |
| 0.48 | 0.15 | -1.65 | -0.43 | rho-5 (GeneID 2768944) | DRSC02847 |
| -0.31 | 1.69 | 3.8 | -0.14 | CG15517 (GeneID 43537) | DRSC15056 |

In a second layout: results already given.
"replicate 1, z-score of dpERK with insulin","replicate 2, z-score of dpERK with insulin","replicate 1, z-score of dpERK under basal conditions","replicate 1, z-score of ERK-YFP with insulin",gene,amplicon
1.43,0.41,0.01,-0.42,CG15728 (GeneID 32214),DRSC19694
-0.68,0.03,0.8,1.15,CG15728 (GeneID 32214),DRSC22868
0.6,-0.6,2.27,-1.5,CG3652 (GeneID 33643),DRSC00624
0.16,-0.09,0.96,-0.4,CG10171 (GeneID 39501),DRSC09711
0.2,0.3,1.05,0.41,CG6813 (GeneID 41396),DRSC16122
-0.06,-0.24,-0.41,0.93,CG5645 (GeneID 39382),DRSC10532
-0.31,0.01,1.31,0.07,CG5510 (GeneID 42872),DRSC15823
0.11,-1.06,-0.51,0.67,CG17564 (GeneID 35205),DRSC02626

More records follow.
| replicate 1, z-score of dpERK with insulin | replicate 2, z-score of dpERK with insulin | replicate 1, z-score of dpERK under basal conditions | replicate 1, z-score of ERK-YFP with insulin | gene | amplicon |
| --- | --- | --- | --- | --- | --- |
| 0.22 | 0.14 | -0.06 | -0.08 | CG17999 (GeneID 37357) | DRSC04300 |
| 0.17 | -0.9 | -0.56 | 0.36 | ens (GeneID 38491) | DRSC08454 |
| 0.3 | 0.47 | 0.45 | 0.03 | gkt (GeneID 33530) | DRSC00821 |
| -0.74 | -2.47 | -3.95 | -3.52 | CG14669 (GeneID 40652) | DRSC12065 |
| -0.97 | 0.09 | 0.42 | 0.26 | CG14669 (GeneID 40652) | DRSC12067 |
| 1.04 | 0.66 | -0.01 | -0.62 | CG14669 (GeneID 40652) | DRSC12068 |
| 1.55 | 1.87 | 0.54 | -0.06 | CG14669 (GeneID 40652) | DRSC12255 |
| -0.45 | -1.32 | 1.52 | 0.66 | TSG101 (GeneID 39881) | DRSC11098 |
| 2 | 1.95 | 0.14 | 0.2 | CG9294 (GeneID 37491) | DRSC04537 |
| -0.19 | -0.37 | 0.65 | 0.01 | CG30423 (GeneID 246605) | DRSC04013 |
| -1.18 | -0.7 | -0.9 | -0.19 | CG13369 (GeneID 31007) | DRSC18481 |
| 0.14 | 0.31 | -0.15 | 0.58 | mRpL17 (GeneID 38046) | DRSC08350 |
| 0.5 | 0.28 | 0.15 | -0.01 | CG11211 (GeneID 35545) | DRSC04851 |
| -0.15 | 0.47 | 0.5 | 0.17 | Tpi (GeneID 43582) | DRSC16888 |
| -0.38 | 0.45 | -1.24 | 0.08 | CG9173 (GeneID 38165) | DRSC08635 |
| 0.33 | 2.65 | 7.26 | 0.71 | snRNP-U1-C (GeneID 42274) | DRSC15804 |
| 0.33 | 0.48 | 2.12 | 2.14 | CG12502 (GeneID 38102) | DRSC08281 |
| 0.53 | 0.28 | -0.15 | -0.94 | Pi3K21B (GeneID 33203) | DRSC00771 |
| 0.93 | 0.16 | 0 | 0.16 | CG17570 (GeneID 35410) | DRSC01770 |
| 0.65 | 0.54 | -0.33 | -0.42 | CG17570 (GeneID 35410) | DRSC03754 |
| 0.52 | -0.5 | 0.84 | 0.32 | sinu (GeneID 46187) | DRSC09752 |
| -2.23 | -0.94 | -0.73 | 0.01 | shrb (GeneID 35933) | DRSC07061 |
| -0.13 | -0.2 | -0.38 | -0.12 | trbl (GeneID 43999) | DRSC11901 |
| 0.02 | 0.09 | 0.13 | -0.01 | CG4318 (GeneID 32266) | DRSC19887 |
| -0.82 | 2.05 | -0.77 | 0.3 | OSCP1 (GeneID 36300) | DRSC06304 |
| -0.11 | 0.59 | -1.04 | -0.03 | Ir68a (GeneID 39269) | DRSC10599 |
| -0.29 | -2.36 | 0.55 | -0.27 | CG32820 + CG17450 + CG32819 | DRSC21803 |
| -0.49 | -0.06 | -0.71 | 0.59 | CG32820 + CG17450 + CG32819 | DRSC22812 |
| 0.54 | 0.32 | -0.5 | 0.26 | jb (GeneID 33032) | DRSC20531 |
| -0.02 | -0.78 | -0.57 | 0.37 | promL (GeneID 38372) | DRSC08733 |
| 0.49 | 0.44 | -0.51 | 0.2 | Kdm4A (GeneID 35744) | DRSC06586 |
| 0.18 | -0.09 | 1.68 | 0.58 | Arr1 (GeneID 35078) | DRSC01867 |
| -0.29 | 0.2 | -0.58 | -0.64 | CG10286 (GeneID 40786) | DRSC12520 |
| 0.47 | 0.62 | 0.49 | 0.76 | TM9SF3 (GeneID 38635) | DRSC09747 |
